Test system: spike-and-wave discharges induced by gamma-butyrolactone (GBL)
Assay: GBL induced absence seizure model, quantified EEG (spectral power, cortex)
Type: in vivo, beagle dogs
[1] = Diazepam 2 mg/kg p.o., mean 10-minute periods

SMILES: CN1C(=O)CN=C(c2ccccc2)c2cc(Cl)ccc21 [Diazepam]
- spectral power on the gamma frequency band (Diazepam 2 mg/kg p.o. 60 minutes before GBL, time-interval 0-10 minutes, p<0.001): significantly increased
- spectral power on the gamma frequency band (Diazepam 2 mg/kg p.o. 60 minutes before GBL, time-interval 10-20 minutes, p<0.01): significantly increased
- spectral power on the gamma frequency band (Diazepam 2 mg/kg p.o. 60 minutes before GBL, time-interval 20-30 minutes, p<0.05): significantly increased
- spectral power on alpha frequency band (Diazepam 2 mg/kg p.o. 60 minutes before GBL, time-interval 20-30 minutes, vs vehicle controls, p<0.05): significantly decreased
- spectral power of lower frequency bands (delta, theta and alpha) (Diazepam 2 mg/kg p.o., across all four time periods): decreased
- spectral power on 3-6 Hz frequency band (Diazepam 2 mg/kg p.o., following GBL administration, vs vehicle control): lowered
- spectral power of high frequency bands [1]: increases
- spectral power of lower frequency bands [1]: decreases

From patent US20240226123A9, “USE OF CANNABIDIVARIN IN THE TREATMENT OF SEIZURES ASSOCIATED WITH CANINE EPILEPSY” (GW Research Limited, priority 2021, published 2024)
